Experimental findings from article PMC9260213 are described below.

No constants are given. Whether binding was seen depends on the method and setting. For some of these results: Binding seen in cells or lysates may run through a third protein. Some results given as binding are weak or reduced against the parent protein; the word gives no strength. For some of these results: Where a sequence is shown, tags or fusion partners need not be part of it.

The target in assay [1] is T1, murine Elp6 L126Q (Mus musculus) (UniProt Q8BK75).
T1 sequence: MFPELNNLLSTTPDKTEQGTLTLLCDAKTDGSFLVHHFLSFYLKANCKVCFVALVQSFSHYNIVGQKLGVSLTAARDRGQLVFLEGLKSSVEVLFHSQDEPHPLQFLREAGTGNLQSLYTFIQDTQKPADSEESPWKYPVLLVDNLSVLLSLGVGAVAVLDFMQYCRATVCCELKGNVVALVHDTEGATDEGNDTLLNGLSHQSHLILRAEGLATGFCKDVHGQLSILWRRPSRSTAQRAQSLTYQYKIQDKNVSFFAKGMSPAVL
Nature of the assay: co-purification; mElp456 variants co-expressed in Hi-5 cells, captured from lysate on IgG agarose via Protein A on Elp6, TEV cleavage, gel filtration.

Assay [2] deals with T2, murine Elp6 L118W (Mus musculus) (UniProt Q8BK75).
T2 sequence: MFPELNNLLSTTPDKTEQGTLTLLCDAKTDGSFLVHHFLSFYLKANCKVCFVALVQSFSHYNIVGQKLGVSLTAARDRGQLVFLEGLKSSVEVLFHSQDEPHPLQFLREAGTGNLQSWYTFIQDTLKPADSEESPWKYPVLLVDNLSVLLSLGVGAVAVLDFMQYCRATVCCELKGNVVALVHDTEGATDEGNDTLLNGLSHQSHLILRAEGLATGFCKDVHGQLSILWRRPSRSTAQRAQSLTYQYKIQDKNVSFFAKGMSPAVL
Described as above.

Assay [3] deals with T3, murine Elp6 (subunit of mElp456) (Mus musculus) (UniProt Q8BK75).
T3 sequence: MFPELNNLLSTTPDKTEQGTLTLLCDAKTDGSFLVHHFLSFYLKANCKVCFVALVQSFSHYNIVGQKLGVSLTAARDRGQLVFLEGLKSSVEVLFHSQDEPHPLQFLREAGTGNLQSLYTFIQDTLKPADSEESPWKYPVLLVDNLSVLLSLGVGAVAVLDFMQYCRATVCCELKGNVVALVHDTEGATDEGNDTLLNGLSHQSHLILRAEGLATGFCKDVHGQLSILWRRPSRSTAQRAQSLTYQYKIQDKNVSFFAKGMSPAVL
Description: SEC; three subunits co-expressed and purified as one complex (human, murine: Hi-5 cells, IgG agarose via Protein A on Elp6, TEV cleavage); gel filtration on Superose 6 Increase 10/300 GL by the legend (S200 Increase 10/300 GL by the methods), 20 mM HEPES pH 7.5, 100 mM NaCl, 2 mM MgCl2, 5 mM DTT; eluted at ~220 kDa; production of the yeast complex not told; both purified. A general note: SEC sorts molecules by how far they enter the pores of the column.

Assay [4] deals with T4, murine Elp3 (subunit of mElp123), Twin-Strep-tagged (murine) (UniProt Q9CZX0).
T4 sequence: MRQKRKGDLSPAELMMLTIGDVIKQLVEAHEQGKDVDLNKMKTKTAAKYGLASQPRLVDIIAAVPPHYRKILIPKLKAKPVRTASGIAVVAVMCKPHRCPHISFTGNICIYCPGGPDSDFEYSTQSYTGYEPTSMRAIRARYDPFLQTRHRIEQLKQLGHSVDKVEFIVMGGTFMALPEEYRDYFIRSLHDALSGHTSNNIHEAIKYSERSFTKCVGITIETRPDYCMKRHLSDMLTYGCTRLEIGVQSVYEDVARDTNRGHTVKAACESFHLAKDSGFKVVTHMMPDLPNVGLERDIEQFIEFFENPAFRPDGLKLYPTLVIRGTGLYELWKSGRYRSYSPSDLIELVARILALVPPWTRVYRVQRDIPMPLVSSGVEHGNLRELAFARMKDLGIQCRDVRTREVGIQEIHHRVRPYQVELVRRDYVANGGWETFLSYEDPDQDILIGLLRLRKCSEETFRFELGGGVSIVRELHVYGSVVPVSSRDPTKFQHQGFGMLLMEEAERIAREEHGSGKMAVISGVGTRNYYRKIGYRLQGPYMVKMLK
Description: pull-down; mElp123 co-expressed in Sf9-1 and purified as one complex via Twin-Strep on Elp3, held on Dynabeads MyOne Streptavidin C1 via Elp3, eluted with d-desthiobiotin; SDS-PAGE, Coomassie; both purified.

Assay [5] addresses T5, yeast Elp6 (subunit of yElp456) (yeast) (UniProt Q04868).
T5 sequence: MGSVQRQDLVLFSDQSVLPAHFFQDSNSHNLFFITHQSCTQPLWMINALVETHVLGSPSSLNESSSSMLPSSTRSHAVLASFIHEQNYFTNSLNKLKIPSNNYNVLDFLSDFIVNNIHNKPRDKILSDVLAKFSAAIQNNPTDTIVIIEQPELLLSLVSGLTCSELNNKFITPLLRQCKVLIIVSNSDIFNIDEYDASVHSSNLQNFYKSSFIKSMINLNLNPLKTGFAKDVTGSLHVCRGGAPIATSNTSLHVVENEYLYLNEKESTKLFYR
Description: SEC; three subunits co-expressed and purified as one complex (human, murine: Hi-5 cells, IgG agarose via Protein A on Elp6, TEV cleavage); gel filtration on Superose 6 Increase 10/300 GL by the legend (S200 Increase 10/300 GL by the methods), 20 mM HEPES pH 7.5, 100 mM NaCl, 2 mM MgCl2, 5 mM DTT; eluted at ~220 kDa; production of the yeast complex not told; both purified.

Assay [6] concerns the target T6, human ELP1, endogenous in fibroblasts (human (endogenous in fibroblasts)) (UniProt O95163).
T6 sequence: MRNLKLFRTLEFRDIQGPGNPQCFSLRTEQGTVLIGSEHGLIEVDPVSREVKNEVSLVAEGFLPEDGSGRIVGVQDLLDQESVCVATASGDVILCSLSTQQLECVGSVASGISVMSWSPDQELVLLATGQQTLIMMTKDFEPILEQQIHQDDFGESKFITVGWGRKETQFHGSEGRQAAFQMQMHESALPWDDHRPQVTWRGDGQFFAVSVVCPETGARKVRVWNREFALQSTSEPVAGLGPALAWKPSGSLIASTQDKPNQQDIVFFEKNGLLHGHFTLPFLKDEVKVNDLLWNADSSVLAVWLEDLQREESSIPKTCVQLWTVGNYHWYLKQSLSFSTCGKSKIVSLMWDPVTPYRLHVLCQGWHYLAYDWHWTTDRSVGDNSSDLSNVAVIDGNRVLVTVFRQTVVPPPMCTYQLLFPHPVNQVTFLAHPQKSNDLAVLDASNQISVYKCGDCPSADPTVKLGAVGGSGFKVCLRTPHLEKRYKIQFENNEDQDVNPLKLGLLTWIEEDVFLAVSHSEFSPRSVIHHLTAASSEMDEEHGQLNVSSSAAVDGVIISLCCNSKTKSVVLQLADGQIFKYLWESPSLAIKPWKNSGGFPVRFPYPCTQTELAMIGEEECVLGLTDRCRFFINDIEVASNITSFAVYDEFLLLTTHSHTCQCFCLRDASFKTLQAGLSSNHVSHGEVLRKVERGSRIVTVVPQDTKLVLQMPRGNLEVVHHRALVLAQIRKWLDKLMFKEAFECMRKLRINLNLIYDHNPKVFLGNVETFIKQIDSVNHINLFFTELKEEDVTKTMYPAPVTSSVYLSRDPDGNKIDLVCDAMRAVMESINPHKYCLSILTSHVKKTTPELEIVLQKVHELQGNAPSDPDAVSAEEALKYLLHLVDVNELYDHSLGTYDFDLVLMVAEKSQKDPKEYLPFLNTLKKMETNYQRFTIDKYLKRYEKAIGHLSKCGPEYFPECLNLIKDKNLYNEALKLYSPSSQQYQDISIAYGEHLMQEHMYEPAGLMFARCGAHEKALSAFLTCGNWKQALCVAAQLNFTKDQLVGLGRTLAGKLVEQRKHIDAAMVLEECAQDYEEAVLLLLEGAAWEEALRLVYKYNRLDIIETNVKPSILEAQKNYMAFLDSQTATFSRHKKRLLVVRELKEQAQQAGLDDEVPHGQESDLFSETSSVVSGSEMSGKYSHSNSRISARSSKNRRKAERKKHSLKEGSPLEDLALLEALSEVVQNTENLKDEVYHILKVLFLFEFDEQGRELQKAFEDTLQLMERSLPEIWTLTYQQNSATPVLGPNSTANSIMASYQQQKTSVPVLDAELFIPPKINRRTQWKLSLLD
Description: co-IP; whole cell lysates of control and patient-derived fibroblasts (0.5% Triton X-100, 50 mM Tris/HCl pH 7.5, 1 mM EDTA, 150 mM NaCl), ELP1 antibody and protein A magnetic beads; blots for ELP1, ELP3, ELP4, ELP5, α-tubulin.

B1: murine Elp5 (subunit of mElp456) (protein, UniProt Q99L85 1-300)
chain: MLDSLLAIGGLVLLRDSVEWEGRSLLKALIKKSALRGEQVHVLGCEVSEEEFREGFDSDVNSRLVYHDLFRDPLNWSKPGEAVPEGPLKALRSMCKRTDHGSVTIALDSLSWLLCHIPCVTLCQALHALSQQNGDPGDNSLVEQVRVLGLLHEELHGPGSMGALNTLAHTEVTLSGKVDQTSASILCRRPQQRATYQTWWFSVLPDFSLTLHEGLPLRSELHPDHHTTQVDPTAHLTFNLHLSKKEREARDSLTLPFQFSSEKQKALLHPVPSRTTGHIFYEPDAFDDVDPEDPDDDLDI
For the molecule B1, the binding entry in assay [1], in assay [2] and in assay [3] was “binds” in each case.

B2: murine Elp2 (subunit of mElp123) (protein, UniProt Q91WG4 1-831)
chain: MVSSVLEVSHVFCCPNRVRGALSWNTGPGGLLAFGTSCSVVLYDPQKKVVITNLNGHTARVNCLQWIRTEDGSPSNELVSGGSDNRVIHWELENNQVLKSVRLQGHEGPVCAVHAIYQSGPSEGEQHALIASAASDSTVRIWSKKGSEVKYLQTLSFRDGFVLSVCLAILPGTNVPVLACGDDDCRIHLYIQQDDQFQKALSLCGHEDWIRGVEWATFGRDLFLASCSQDCLIRIWRLYMKPASFETKDGSLRLKENTFTIKDGGVRTTVAVTLETVLAGHENWVNAVHWQPSFYKDGVLQQPVRLLSASMDKTMILWAPDEESGVWLEQVRVGEVGGNTLGFYDCQFGENGTMIIAHAFHGALHLWKQSTVNPRQWAPEIVISGHFDGVQDLMWDPEGEFIITTSTDQTTRLFAPWKKKDQKDRSQVTWHEIARPQIHGYNIKCLAMIDRFQFVSGADEKVLRVFSAPRNFVENFSVISRQSLSHMLCDDQDLPEGATVPALGLSNKALFQGDIASQPFEEDELISPAFGSPQVTFQPAVLNEPPTEDHLLQNTLWPEIQKLYGHGYEIVCVACNNSKTLLASACKASQKEHAAIILWSTASWKQVQSLAFHTLTVTQMTFSPDDKFLLAVSRDRTWSLWKRQDATSSEFDPFFSLFAFTNKITSVHSRIIWSCDWSPDNKYFFTGSRDKKVVVWGECKSSHNPMEHPIRPCSSILDVGSSVTAVSVCPVLNPAQRYIVAIGLESGKICIYSWNKTNQEINDWTSCVETNPSQSHSLGIRRLCWKSCSDDDDDDDDDDTEQSEEGPEWLHFASCGEDHTVKIYRVNRRAL
On to B2, for which, in assay [4], the binding entry was “binds”.

B3: yeast Elp4 (subunit of yElp456) (protein, UniProt Q02884 1-456)
chain: MSFRKRGEILNDRGSGLRGPLLRGPPRTSSTPLRTGNRRAPGNVPLSDTTARLKKLNIADESKTKMGLDSSHVGVRPSPATSQPTTSTGSADLDSILGHMGLPLGNSVLVEEQSTTEFHSILGKLFAAQGIVHNRISDSSADKTRNGDTHVIVLSLNQMFAKELPGIYKGSRKQMKKNLISEEESKVTVQNLNETQRSTPSRYKDLKIAWKYKLADEKRLGSPDRDDIQQNSEYKDYNHQFDITTRLMPAPIASELTFIAPTQPVSTILSQIEQTIKRNDKKLIRIVIPSLLHPAMYPPKMFESSEIIGLMHGVRSLVKKYYERVVLFASISIDIITPPLLVLLRNMFDSVINLEPFNQEMTEFLERVYKSQPGKIQHGLVHILKLPVFTDRGEMRVLKSEWAFKNGRKKFEIEQWGIPVDDAEGSAASEQSHSHSHSDEISHNIPAKKTKISLDY
For the molecule B3, in assay [5], the binding entry is recorded as “binds”.

B4: human ELP5, endogenous in fibroblasts (protein, UniProt Q8TE02 1-300)
chain: MLDSLLALGGLVLLRDSVEWEGRSLLKALVKKSALCGEQVHILGCEVSEEEFREGFDSDINNRLVYHDFFRDPLNWSKTEEAFPGGPLGALRAMCKRTDPVPVTIALDSLSWLLLRLPCTTLCQVLHAVSHQDSCPGDSSSVGKVSVLGLLHEELHGPGPVGALSSLAQTEVTLGGTMGQASAHILCRRPRQRPTDQTQWFSILPDFSLDLQEGPSVESQPYSDPHIPPVDPTTHLTFNLHLSKKEREARDSLILPFQFSSEKQQALLRPRPGQATSHIFYEPDAYDDLDQEDPDDDLDI
For B4, the binding entry in assay [6] is given as “binds”.

B5: human ELP4, endogenous in fibroblasts (wild type) (protein, UniProt Q96EB1 1-424)
chain: MAAVATCGSVAASTGSAVATASKSNVTSFQRRGPRASVTNDSGPRLVSIAGTRPSVRNGQLLVSTGLPALDQLLGGGLAVGTVLLIEEDKYNIYSPLLFKYFLAEGIVNGHTLLVASAKEDPANILQELPAPLLDDKCKKEFDEDVYNHKTPESNIKMKIAWRYQLLPKMEIGPVSSSRFGHYYDASKRMPQELIEASNWHGFFLPEKISSTLKVEPCSLTPGYTKLLQFIQNIIYEEGFDGSNPQKKQRNILRIGIQNLGSPLWGDDICCAENGGNSHSLTKFLYVLRGLLRTSLSACIITMPTHLIQNKAIIARVTTLSDVVVGLESFIGSERETNPLYKDYHGLIHIRQIPRLNNLICDESDVKDLAFKLKRKLFTIERLHLPPDLSDTVSRSSKMDLAESAKRLGPGCGMMAGGKKHLDF
Regarding B5, in assay [6], the binding result was “binds”.
